Results published in patent publication US10011614B2, “Bis-β-carboline compound and preparation method, pharmaceutical composition and use thereof” (XINJIANG HUASHIDAN PHARMACEUTICAL RESEARCH CO., LTD., priority 2012, dated 2018).
For at least one compound, name, drawing or mass did not settle the structure.

Tested on: mice
Experiment: Neurotoxicity observation after administration in mice
Format: in vivo
Conditions: immediate response after administration (jump, tremor, twisting)

## CCOC(=O)c1cc2c3ccccc3n(CCCCCCn3c4ccccc4c4cc(C(=O)OCC)nc(-c5cc(OC)c(OC)c(OC)c5)c43)c2c(-c2cc(OC)c(OC)c(OC)c2)n1 [Compound 27, 1,6-bis[1-(3,4.5-trimethoxy)phenyl-β-carboline-β-ethyoxylcarbonyl-9-yl]hexane]
  neurotoxicity: −
